Measured values taken from the supplement of paper PMC12067093, “Discovery and optimisation of a covalent ligand for TRIM25 and its application to targeted protein ubiquitination” (Chemical Science, 2025).
This is one part of the list.

Compound: CC1Cc2ccccc2N1C(=O)C1CCCN(C1)C(=O)CCl (mixture of isomers) [TRIM25 ligand 11 (diastereomer mixture)]
Experiment: probe-labelled cysteine peptide fold change vs DMSO (competition) (log2 fold change); higher = less target engagement (more negative = stronger competition)
Settings: THP-1, incubation time: 4 h
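Note: competitive chemoproteomic profiling in live THP-1 cells with an iodoacetamide desthiobiotin (IA-DTB) probe, comparing probe-labelled peptide intensities in compound-treated cells against DMSO-treated controls.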

## CUL3_Q13618_636_ALQSLACGKPTQR (UniProt Q13618)
10 µM
  probe-labelled cysteine peptide fold change: -0.067
50 µM
  probe-labelled cysteine peptide fold change: -0.239

## CTSC_P53634_321_YAQDFGLVEEACFPYTGTDSPCK (UniProt P53634)
10 µM
  probe-labelled cysteine peptide fold change: -0.213
50 µM
  probe-labelled cysteine peptide fold change: 0.011

## CWC27_Q6UX04_164_SCEVLFNPFDDIIPR (UniProt Q6UX04)
10 µM
  probe-labelled cysteine peptide fold change: -0.0154
50 µM
  probe-labelled cysteine peptide fold change: -0.0699

## DCTN1_Q14203_791_DLETSCSDIR (UniProt Q14203)
10 µM
  probe-labelled cysteine peptide fold change: 0.0145
50 µM
  probe-labelled cysteine peptide fold change: 0.113

## CTSC_P53634_448_GTDECAIESIAVAATPIPK (UniProt P53634)
10 µM
  probe-labelled cysteine peptide fold change: 0.0258
50 µM
  probe-labelled cysteine peptide fold change: -0.283

## DCAF10_Q5QP82_412_NSLEVVTPEVLGESDHGNCITSLQLHPK (UniProt Q5QP82)
10 µM
  probe-labelled cysteine peptide fold change: 0.152
50 µM
  probe-labelled cysteine peptide fold change: -0.291

## DCAF8_Q5TAQ9_273_VAELSATQCCK (UniProt Q5TAQ9)
10 µM
  probe-labelled cysteine peptide fold change: -0.107
50 µM
  probe-labelled cysteine peptide fold change: -0.162

## DCAF12L1_Q5VU92_117_CNTLFVVDVESGHIAR (UniProt Q5VU92)
10 µM
  probe-labelled cysteine peptide fold change: 0.195
50 µM
  probe-labelled cysteine peptide fold change: 0.138

## DCTN6_O00399_18_IAPGAVVCVESEIR (UniProt O00399)
10 µM
  probe-labelled cysteine peptide fold change: 0.116
50 µM
  probe-labelled cysteine peptide fold change: -0.0906

## DCLK2_Q8N568_288_YAQDDFVLDHSECR (UniProt Q8N568)
10 µM
  probe-labelled cysteine peptide fold change: -0.0451
50 µM
  probe-labelled cysteine peptide fold change: 0.0376

## CTSA_P10619_241_LWSSLQTHCCSQNK (UniProt P10619)
10 µM
  probe-labelled cysteine peptide fold change: -0.0187
50 µM
  probe-labelled cysteine peptide fold change: -0.112

## DCAF8_Q5TAQ9_483_GGVVNCLEPHPHLPVLATSGLDHDVK (UniProt Q5TAQ9)
10 µM
  probe-labelled cysteine peptide fold change: -0.0398
50 µM
  probe-labelled cysteine peptide fold change: -0.0215

## DCTN1_Q14203_81_YFTCDEGHGIFVR (UniProt Q14203)
10 µM
  probe-labelled cysteine peptide fold change: 0.00313
50 µM
  probe-labelled cysteine peptide fold change: 0.0132

## CTPS1_P17812_362_LCSAHGVLVPGGFGVR (UniProt P17812)
10 µM
  probe-labelled cysteine peptide fold change: 0.0757
50 µM
  probe-labelled cysteine peptide fold change: 0.0119

## DARS2_Q6PI48_202_EYLCNLHGFVDIETPTLFK (UniProt Q6PI48)
10 µM
  probe-labelled cysteine peptide fold change: 0.287
50 µM
  probe-labelled cysteine peptide fold change: 0.216

## DARS2_Q6PI48_459_LECADLLETR (UniProt Q6PI48)
10 µM
  probe-labelled cysteine peptide fold change: -0.0451
50 µM
  probe-labelled cysteine peptide fold change: -0.0419

## CTSB_P07858_108_EIRDQGSCGSCWAFGAVEAISDR (UniProt P07858)
10 µM
  probe-labelled cysteine peptide fold change: -0.192
50 µM
  probe-labelled cysteine peptide fold change: -0.175

## DCAF1_Q9Y4B6_1037_NPVATCPPFSLFTPHQCPEPK (UniProt Q9Y4B6)
10 µM
  probe-labelled cysteine peptide fold change: -0.13
50 µM
  probe-labelled cysteine peptide fold change: -0.0666

## CTSB_P07858_105_EIRDQGSCGSCWAFGAVEAISDR (UniProt P07858)
10 µM
  probe-labelled cysteine peptide fold change: -0.361
50 µM
  probe-labelled cysteine peptide fold change: -0.29

## CYLD_Q9NQC7_252_VGETIESGTVIFCDVLPGK (UniProt Q9NQC7)
10 µM
  probe-labelled cysteine peptide fold change: 0.00286
50 µM
  probe-labelled cysteine peptide fold change: -0.0418

## DCAF13_Q9NV06_330_RMQHVICVK (UniProt Q9NV06)
10 µM
  probe-labelled cysteine peptide fold change: 0.155
50 µM
  probe-labelled cysteine peptide fold change: 0.332

## CXXC1_Q9P0U4_181_TEDCGHCDFCR (UniProt Q9P0U4)
10 µM
  probe-labelled cysteine peptide fold change: 0.211
50 µM
  probe-labelled cysteine peptide fold change: 0.202

## DARS2_Q6PI48_371_AICIPEGAK (UniProt Q6PI48)
10 µM
  probe-labelled cysteine peptide fold change: -0.143
50 µM
  probe-labelled cysteine peptide fold change: -0.0762

## CYBB_P04839_537_IGVFLCGPEALAETLSK (UniProt P04839)
10 µM
  probe-labelled cysteine peptide fold change: 0.273
50 µM
  probe-labelled cysteine peptide fold change: -0.00485

## DCAF8_Q5TAQ9_195_LQHGLEGHTGCVNTLHFNQR (UniProt Q5TAQ9)
10 µM
  probe-labelled cysteine peptide fold change: 0.0546
50 µM
  probe-labelled cysteine peptide fold change: -0.0457

## CWF19L1_Q69YN2_87_YFQDADGCELAENITYLGR (UniProt Q69YN2)
10 µM
  probe-labelled cysteine peptide fold change: 0.3
50 µM
  probe-labelled cysteine peptide fold change: 0.372

## CUTC_Q9NTM9_223_ILEGSGATEFHCSAR (UniProt Q9NTM9)
10 µM
  probe-labelled cysteine peptide fold change: 0.176
50 µM
  probe-labelled cysteine peptide fold change: 0.0418

## DARS_P14868_349_LEYCEALAMLR (UniProt P14868)
10 µM
  probe-labelled cysteine peptide fold change: 0.117
50 µM
  probe-labelled cysteine peptide fold change: 0.0939

## CTSG_P08311_207_GDSGGPLLCNNVAHGIVSYGK (UniProt P08311)
10 µM
  probe-labelled cysteine peptide fold change: -0.0408
50 µM
  probe-labelled cysteine peptide fold change: -0.112

## DCTN4_Q9UJW0_70_CANCFDCPGCMHTLSTR (UniProt Q9UJW0)
10 µM
  probe-labelled cysteine peptide fold change: -0.000388
50 µM
  probe-labelled cysteine peptide fold change: 0.0366

## DAXX_Q9UER7_106_AHSLFLASAEFCNILSR (UniProt Q9UER7)
10 µM
  probe-labelled cysteine peptide fold change: 0.442
50 µM
  probe-labelled cysteine peptide fold change: 1.38

## CTR9_Q6PD62_207_LGMGHCFVK (UniProt Q6PD62)
10 µM
  probe-labelled cysteine peptide fold change: -0.0454
50 µM
  probe-labelled cysteine peptide fold change: -0.024

## DAZAP1_Q96EP5_63_FKDPNCVGTVLASRPHTLDGR (UniProt Q96EP5)
10 µM
  probe-labelled cysteine peptide fold change: 0.0212
50 µM
  probe-labelled cysteine peptide fold change: 0.0487

## DARS_P14868_349_FLEPTLRLEYCEALAMLR (UniProt P14868)
10 µM
  probe-labelled cysteine peptide fold change: -0.495
50 µM
  probe-labelled cysteine peptide fold change: -0.308

## DBNL_Q9UJU6_127_AEEDVEPECIMEK (UniProt Q9UJU6)
10 µM
  probe-labelled cysteine peptide fold change: 0.0187
50 µM
  probe-labelled cysteine peptide fold change: -0.0226

## CTSG_P08311_142_AQEGLRPGTLCTVAGWGR (UniProt P08311)
10 µM
  probe-labelled cysteine peptide fold change: -0.072
50 µM
  probe-labelled cysteine peptide fold change: 0.0476

## DCP2_Q8IU60_73_AVFSHCPFLLPQGEDVEK (UniProt Q8IU60)
10 µM
  probe-labelled cysteine peptide fold change: 0.477
50 µM
  probe-labelled cysteine peptide fold change: 0.279

## DAXX_Q9UER7_338_HLDLIYNFGCHLTDDYRPGVDPALSDPVLAR (UniProt Q9UER7)
10 µM
  probe-labelled cysteine peptide fold change: 0.0212
50 µM
  probe-labelled cysteine peptide fold change: -0.0317
